Assay [1] deals with p76/p74 species of MDM2 of 3T3DM cells, lacking the N-terminal p53 binding domain (UniProt P23804). Nature of the assay: anti-p19^ARF immunoprecipitation, anti-MDM2 Western blot, untransfected 3T3DM cells. For orientation: A western blot detects proteins with antibodies after separation by electrophoresis.
Assay [2] shares this target. Briefly: anti-p19^ARF immunoprecipitation, anti-MDM2 (2A10) Western blot, untransfected 3T3DM cells.

Amino acid sequences for entries named in this document (tags omitted). Residues count along the entry.
UniProt P23804, residues 50-489: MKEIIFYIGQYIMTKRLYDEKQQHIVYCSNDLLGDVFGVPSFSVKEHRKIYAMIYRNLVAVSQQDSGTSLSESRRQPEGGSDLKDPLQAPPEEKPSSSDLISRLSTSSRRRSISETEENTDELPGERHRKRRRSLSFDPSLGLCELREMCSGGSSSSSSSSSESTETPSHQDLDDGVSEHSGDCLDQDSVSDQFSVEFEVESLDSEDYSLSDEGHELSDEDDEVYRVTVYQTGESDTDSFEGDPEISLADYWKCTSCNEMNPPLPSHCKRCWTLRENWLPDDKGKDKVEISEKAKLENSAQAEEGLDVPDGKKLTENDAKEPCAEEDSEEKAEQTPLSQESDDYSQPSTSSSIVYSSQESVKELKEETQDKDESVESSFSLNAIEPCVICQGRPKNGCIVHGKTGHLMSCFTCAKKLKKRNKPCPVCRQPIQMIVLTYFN

The record followed here is patent US6897197.

Results are given in words; binding and its absence hold for the method and conditions named. Some binding calls cover weakened binding; strength is not graded here.

B1: endogenous p19^ARF of untransfected 3T3DM cells (protein, UniProt Q64364 1-169, looked up)
chain: MGRRFLVTVRIQRAGRPLQERVFLVKFVRSRRPRTASCALAFVNMLLRLERILRRGPHRNPGPGDDDGQRSRSSSSAQLRCRFELRGPHYLLPPGARRSAGRLPGHAGGAARVRGSAGCARCLGSPAARLGPRAGTSRHRAIFAFRWVLFVFRWVVFVYRWERRPDRRA
Take B1: the binding entry in assay [1] and in assay [2] was “binds” each time.
